Experimental data published in publication PMC8998196, “A Second Gamma-Glutamylpolyamine Synthetase, GlnA2, Is Involved in Polyamine Catabolism in Streptomyces coelicolor” (International Journal of Molecular Sciences, 2022).
The exact form of at least one protein or probe is not confirmed. A negative result means that nothing was seen under these conditions. Weaker means in comparison with the reference protein, sequence or condition of that experiment.

Protein sequences, listed by entry. Tags and fused reporters are not part of them. Lines headed by an entry give the natural chain unless they say otherwise; changes in a name come on top.
UniProt Q05943: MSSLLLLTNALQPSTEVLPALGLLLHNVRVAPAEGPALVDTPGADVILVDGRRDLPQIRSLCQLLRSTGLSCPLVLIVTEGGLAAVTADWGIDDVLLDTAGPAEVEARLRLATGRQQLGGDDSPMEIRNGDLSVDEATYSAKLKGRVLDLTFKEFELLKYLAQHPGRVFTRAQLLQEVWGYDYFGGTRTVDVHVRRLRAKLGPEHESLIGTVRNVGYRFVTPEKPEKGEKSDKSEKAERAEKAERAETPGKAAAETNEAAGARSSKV

Molecular target: Strep-GlnR (non-acetylated) (Streptomyces coelicolor) (UniProt Q05943)
Assay: EMSA
Conditions: EMSA: Cy5-labelled about 250 bp PCR fragments with 0.5-2 ug protein at RT, excess unlabelled specific or non-specific DNA as specificity control, recombinant protein, protein details: N-terminal StrepII-tag, label: Cy5, probe letters rebuilt from the primers and the genome

Question: Does “AGCCAGTGGCGATAAGCACGTGTCGGCTCCTTCGCGCGTGCGCCGTCCGTCGCACACCATTGTGCCGTCCGGTGATCACCCTGTCCGGGTTTCGCCGGATGTGCGCACGACGCGGTGAAGGCCGCCCGGGGTCAGTCCATGGTGGTCGGCTGCGGGGAGGGGGTCCCGCCGTCCAGGACGGTCTTGAGGCGCTCGGTGCCCTGGCGCACCGCCTGTTCGACCGAGTCCGTCTGCCCGCCGTCGAGGCCCCCGCCCATGACGGTGACGGCCTTATCGCCACTGGCT (double strand) [glnA3 promoter region]” bind (conditions equivalent to glnA2, data not shown)?
Answer: Result: no binding

Question: Does “AGCCAGTGGCGATAAGCATCTTCCGCTTCCCCATCCTTGCTGGTCAGGCCGCCTGTCTCCGGTACGGCGGGAGGCGGTCGGGCACTTGAGCATCACACCACAGCGCCGTTACGTGTGCGTTGCGGACCTCCGTCGGCCGGCCCACCCCGTGACCGCAGCGTAGAGGCCACCTGTTCGATCGGGCCATTCCGGGGATCGGGCCGGGACGGATCCTGTGCCCGCCCTACGAAGGACGGGCCCCGCGCCATTACGATCAGCGGACCTCACGGCTTATCGCCACTGGCT (double strand) [glnA2 promoter region]” bind (shift only at higher protein amounts, weaker than acetylated GlnR)?
Answer: Result: binds more weakly
